± gives the standard deviation of the averaged measurements. The entries are a selection whose mix differs from that of the whole data set. Most values lie at the level of the controls, where differences are scatter.

Sequences of proteins named here, by UniProt entry; tags and fusion partners are left off. A change or cut given only in a name is not applied to a line headed by its entry.
UniProt Q96T37: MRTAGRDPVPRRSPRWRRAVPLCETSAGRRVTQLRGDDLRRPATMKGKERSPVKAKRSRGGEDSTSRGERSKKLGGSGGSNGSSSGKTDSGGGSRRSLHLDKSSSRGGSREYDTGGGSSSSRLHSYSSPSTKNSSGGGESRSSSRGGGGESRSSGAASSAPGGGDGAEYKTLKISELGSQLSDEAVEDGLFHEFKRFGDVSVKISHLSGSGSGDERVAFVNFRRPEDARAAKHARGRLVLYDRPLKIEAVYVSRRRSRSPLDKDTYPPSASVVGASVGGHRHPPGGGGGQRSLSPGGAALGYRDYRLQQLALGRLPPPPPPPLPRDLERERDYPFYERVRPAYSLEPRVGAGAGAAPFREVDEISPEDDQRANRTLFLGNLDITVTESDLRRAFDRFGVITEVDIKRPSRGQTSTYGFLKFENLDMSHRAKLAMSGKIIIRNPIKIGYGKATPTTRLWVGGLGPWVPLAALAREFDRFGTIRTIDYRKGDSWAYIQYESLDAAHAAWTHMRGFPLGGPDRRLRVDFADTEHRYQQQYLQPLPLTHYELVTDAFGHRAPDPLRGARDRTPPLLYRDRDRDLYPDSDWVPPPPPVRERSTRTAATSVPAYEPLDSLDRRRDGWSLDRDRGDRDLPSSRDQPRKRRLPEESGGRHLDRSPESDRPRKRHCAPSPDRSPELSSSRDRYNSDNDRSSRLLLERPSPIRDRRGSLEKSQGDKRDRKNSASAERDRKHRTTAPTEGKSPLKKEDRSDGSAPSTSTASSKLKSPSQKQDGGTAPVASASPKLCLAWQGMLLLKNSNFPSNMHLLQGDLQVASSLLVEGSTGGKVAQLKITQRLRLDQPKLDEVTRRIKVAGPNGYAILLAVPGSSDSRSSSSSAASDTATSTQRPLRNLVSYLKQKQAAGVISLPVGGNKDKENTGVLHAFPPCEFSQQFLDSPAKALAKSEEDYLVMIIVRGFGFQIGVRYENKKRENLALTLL
UniProt Q8IZP0: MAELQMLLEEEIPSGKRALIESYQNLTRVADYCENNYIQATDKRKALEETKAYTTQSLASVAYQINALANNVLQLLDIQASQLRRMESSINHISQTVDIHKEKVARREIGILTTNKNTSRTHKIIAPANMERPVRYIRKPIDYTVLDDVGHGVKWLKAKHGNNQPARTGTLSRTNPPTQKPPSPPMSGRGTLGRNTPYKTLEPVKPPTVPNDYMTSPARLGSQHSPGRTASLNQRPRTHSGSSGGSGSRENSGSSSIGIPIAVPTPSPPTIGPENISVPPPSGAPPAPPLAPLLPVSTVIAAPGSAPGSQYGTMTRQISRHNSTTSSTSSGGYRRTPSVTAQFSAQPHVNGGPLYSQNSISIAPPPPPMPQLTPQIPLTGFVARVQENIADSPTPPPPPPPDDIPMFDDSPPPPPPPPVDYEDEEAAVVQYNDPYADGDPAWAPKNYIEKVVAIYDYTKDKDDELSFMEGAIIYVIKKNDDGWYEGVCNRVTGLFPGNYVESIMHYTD
UniProt O15484: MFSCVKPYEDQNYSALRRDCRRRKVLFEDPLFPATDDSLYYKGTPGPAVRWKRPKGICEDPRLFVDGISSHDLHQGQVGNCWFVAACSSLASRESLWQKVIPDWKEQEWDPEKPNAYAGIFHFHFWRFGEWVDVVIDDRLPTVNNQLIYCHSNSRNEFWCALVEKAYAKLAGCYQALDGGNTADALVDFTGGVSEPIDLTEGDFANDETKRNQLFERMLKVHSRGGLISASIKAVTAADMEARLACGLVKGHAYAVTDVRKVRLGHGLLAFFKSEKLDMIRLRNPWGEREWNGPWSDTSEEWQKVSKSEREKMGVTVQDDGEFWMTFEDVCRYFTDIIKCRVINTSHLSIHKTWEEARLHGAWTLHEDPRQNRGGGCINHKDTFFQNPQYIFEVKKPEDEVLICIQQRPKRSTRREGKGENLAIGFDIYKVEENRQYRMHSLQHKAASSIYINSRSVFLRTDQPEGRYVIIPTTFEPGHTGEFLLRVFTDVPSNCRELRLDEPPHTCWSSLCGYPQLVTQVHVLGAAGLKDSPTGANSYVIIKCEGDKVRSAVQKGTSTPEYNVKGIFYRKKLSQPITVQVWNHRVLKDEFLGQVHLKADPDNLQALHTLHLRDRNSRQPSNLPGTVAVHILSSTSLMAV
UniProt Q9UHQ1: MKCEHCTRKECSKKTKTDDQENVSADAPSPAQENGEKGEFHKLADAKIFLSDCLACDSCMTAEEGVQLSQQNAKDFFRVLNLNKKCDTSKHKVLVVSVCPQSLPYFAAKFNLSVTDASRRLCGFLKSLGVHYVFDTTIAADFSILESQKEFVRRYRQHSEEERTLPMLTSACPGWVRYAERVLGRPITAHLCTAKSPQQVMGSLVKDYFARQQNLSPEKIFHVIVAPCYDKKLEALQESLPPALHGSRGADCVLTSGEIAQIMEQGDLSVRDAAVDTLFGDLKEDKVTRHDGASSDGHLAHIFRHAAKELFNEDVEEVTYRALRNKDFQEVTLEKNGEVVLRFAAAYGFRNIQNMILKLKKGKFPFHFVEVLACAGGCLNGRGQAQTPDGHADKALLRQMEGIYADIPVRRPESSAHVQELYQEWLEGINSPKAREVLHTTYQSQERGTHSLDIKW
UniProt Q9BSQ5: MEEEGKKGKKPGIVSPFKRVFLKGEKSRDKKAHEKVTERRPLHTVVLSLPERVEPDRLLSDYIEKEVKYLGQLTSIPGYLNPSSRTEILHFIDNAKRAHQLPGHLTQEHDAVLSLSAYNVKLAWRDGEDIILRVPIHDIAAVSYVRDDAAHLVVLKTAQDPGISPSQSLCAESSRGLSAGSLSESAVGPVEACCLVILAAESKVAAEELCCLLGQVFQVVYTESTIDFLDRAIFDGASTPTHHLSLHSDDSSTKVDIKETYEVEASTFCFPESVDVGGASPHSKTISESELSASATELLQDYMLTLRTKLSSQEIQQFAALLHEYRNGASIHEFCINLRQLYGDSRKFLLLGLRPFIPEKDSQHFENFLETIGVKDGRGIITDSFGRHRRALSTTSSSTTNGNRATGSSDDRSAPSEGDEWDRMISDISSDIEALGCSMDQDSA
UniProt Q6P3W7: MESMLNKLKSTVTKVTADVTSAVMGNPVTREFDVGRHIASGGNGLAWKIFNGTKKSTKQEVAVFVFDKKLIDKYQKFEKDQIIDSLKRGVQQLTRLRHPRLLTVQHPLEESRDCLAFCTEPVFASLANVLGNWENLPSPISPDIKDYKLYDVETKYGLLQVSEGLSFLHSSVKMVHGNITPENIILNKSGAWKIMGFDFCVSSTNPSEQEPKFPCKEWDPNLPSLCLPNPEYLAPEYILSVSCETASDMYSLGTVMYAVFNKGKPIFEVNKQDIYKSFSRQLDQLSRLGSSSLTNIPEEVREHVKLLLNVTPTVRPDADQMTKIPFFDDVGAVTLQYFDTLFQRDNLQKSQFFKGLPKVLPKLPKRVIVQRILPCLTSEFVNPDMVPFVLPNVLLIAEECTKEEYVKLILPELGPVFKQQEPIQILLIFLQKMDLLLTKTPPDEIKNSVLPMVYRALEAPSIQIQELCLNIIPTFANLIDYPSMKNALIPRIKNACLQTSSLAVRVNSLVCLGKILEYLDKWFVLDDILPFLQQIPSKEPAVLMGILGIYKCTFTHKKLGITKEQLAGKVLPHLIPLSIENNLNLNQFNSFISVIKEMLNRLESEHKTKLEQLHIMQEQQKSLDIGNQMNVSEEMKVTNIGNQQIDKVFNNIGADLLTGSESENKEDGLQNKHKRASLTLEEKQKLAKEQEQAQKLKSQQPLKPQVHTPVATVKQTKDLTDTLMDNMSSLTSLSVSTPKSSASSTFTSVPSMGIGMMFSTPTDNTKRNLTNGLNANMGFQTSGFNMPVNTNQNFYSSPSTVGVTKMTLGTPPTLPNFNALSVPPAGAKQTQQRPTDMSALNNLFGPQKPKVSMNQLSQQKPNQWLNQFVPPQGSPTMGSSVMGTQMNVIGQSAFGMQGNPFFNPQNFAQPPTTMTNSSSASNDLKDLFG
UniProt P56556, whole entry: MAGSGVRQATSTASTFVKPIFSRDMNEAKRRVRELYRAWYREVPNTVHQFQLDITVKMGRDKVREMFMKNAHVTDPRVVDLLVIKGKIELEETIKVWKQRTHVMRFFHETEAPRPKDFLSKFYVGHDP
UniProt A1L020: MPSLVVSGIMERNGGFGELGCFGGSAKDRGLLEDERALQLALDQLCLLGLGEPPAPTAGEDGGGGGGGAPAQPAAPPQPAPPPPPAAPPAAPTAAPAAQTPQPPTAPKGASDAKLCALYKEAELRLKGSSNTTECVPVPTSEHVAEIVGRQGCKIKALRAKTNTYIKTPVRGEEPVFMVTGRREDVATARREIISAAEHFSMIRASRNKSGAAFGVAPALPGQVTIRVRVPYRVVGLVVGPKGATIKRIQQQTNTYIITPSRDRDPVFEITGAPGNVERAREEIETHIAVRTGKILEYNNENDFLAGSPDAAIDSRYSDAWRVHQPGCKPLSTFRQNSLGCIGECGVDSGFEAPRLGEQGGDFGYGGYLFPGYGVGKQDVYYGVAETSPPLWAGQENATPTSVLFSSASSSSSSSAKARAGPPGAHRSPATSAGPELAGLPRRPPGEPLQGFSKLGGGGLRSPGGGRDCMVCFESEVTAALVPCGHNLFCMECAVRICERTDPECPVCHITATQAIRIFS
UniProt Q15651: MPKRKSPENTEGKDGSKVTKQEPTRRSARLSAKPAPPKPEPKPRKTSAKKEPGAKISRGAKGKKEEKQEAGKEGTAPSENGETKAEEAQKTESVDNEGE
UniProt Q92800, whole entry: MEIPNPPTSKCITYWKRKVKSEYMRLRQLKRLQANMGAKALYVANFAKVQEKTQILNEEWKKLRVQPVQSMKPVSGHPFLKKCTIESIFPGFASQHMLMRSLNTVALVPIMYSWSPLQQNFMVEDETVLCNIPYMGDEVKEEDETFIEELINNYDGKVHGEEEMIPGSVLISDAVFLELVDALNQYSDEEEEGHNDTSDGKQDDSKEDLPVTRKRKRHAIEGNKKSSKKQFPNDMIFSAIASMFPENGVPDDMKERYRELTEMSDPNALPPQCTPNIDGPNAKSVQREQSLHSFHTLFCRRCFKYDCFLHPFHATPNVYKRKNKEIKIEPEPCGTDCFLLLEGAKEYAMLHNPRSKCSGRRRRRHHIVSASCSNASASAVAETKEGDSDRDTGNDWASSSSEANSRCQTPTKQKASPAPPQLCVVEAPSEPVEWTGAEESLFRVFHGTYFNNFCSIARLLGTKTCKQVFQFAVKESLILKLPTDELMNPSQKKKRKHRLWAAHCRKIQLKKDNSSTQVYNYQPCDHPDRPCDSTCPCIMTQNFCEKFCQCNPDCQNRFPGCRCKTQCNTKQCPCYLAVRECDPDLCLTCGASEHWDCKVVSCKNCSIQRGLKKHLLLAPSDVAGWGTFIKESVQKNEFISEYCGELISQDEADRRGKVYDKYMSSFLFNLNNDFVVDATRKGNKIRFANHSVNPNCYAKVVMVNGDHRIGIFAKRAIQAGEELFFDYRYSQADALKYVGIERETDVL
UniProt P28062: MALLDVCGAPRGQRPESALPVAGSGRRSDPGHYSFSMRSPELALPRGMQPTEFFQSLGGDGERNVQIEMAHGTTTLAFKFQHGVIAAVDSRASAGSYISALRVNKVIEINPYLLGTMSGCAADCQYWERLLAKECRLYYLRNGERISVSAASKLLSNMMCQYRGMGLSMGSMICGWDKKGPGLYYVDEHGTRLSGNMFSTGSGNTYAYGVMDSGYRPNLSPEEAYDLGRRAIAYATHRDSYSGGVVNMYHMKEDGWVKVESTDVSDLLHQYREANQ
UniProt Q9Y3T6: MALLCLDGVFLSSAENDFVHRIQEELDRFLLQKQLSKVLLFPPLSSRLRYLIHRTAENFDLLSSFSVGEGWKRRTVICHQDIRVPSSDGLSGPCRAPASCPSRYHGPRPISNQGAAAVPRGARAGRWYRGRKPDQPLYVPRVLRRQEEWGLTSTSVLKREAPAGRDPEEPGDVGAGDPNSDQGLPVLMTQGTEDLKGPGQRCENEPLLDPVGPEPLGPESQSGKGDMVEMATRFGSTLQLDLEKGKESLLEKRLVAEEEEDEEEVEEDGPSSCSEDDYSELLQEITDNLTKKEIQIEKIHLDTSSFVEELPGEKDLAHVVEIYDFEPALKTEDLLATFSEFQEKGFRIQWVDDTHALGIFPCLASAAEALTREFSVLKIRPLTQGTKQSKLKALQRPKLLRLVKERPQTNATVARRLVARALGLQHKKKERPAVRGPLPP
UniProt Q9HCP0: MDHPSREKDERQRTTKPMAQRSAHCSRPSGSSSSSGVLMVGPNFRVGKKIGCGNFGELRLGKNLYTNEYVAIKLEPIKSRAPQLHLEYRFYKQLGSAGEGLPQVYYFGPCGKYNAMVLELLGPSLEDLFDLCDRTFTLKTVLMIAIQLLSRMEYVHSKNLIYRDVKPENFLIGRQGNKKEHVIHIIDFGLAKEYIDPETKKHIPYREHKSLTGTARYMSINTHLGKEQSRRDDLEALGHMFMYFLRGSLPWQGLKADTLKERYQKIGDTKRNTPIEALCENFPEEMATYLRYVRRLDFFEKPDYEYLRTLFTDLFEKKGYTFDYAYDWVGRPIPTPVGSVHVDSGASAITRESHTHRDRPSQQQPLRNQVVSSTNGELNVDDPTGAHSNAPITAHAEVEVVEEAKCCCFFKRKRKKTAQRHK

Compound in this experiment: Nc1ncnc2c1ncn2[C@@H]1O[C@H](COP(=O)(O)OP(=O)(O)NP(=O)(O)O)[C@@H](O)[C@H]1O [adenylyl imidodiphosphate]
Nature of the experiment: NP40-soluble protein abundance relative to vehicle (solubility fold change) (ratio); higher = more soluble protein in presence of AMP-PNP. The following applies: concentration: 0.1mM. In short, it runs like this: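 Values are fold changes against the detergent-processed vehicle, based on vsn-normalised intensities. Jurkat crude lysate was treated at eight concentrations from 0.1 to 10 mM (10 min at room temperature, then 3 min at 37 °C), solubilised with 0.8% NP40 and benzonase, ultracentrifuged and analysed by TMT-labelled LC-MS/MS over three independent experiments.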
Take “A0A087WWP4|Q96T37 and related entries (UniProt Q96T37)”: the NP40-soluble protein abundance was determined as 1.008 ± 0.0058. On to A0A087X176|Q6ZRP7 (UniProt Q6ZRP7), for which the NP40-soluble protein abundance turned out to be 0.997 ± 0.024.

Regarding “A0A0A0MRT6|B6VEX4 and related entries (UniProt Q8IZP0)”, the NP40-soluble protein abundance is 1.04 ± 0.013.

With “A0A087WYG2|E9PFH7 and related entries (UniProt Q9UPT6)”, the NP40-soluble protein abundance was determined as 1.01 ± 0.038. The figure for “A0A087X0C8|O15484 and related entries (UniProt O15484)” is 0.995 ± 0.01; for “A0A088AWN8|Q9UHQ1 and related entries (UniProt Q9UHQ1)” it is 0.993 ± 0.03. The result for “A0A0A0MT72|Q9BSQ5 and related entries (UniProt Q9BSQ5)” reads 0.982 ± 0.018; that for A0A0U1RQQ9|Q6P3W7 (UniProt Q6P3W7), 0.998 ± 0.018. As to “A0A0C4DGS0|P56556 and related entries (UniProt P56556)”, the NP40-soluble protein abundance is 1.02 ± 0.042. For MEX3A (UniProt A1L020), the NP40-soluble protein abundance was 1 ± 0.012. The result for A0A087WZE9 (UniProt Q15651) reads 1.039 ± 0.0021.

For “A0A0A0MSY9|Q92800 and related entries (UniProt Q92800)”, the NP40-soluble protein abundance turned out to be 0.995 ± 0.031. Turning to “A0A0D9SF53|A0A0D9SFB3|A0A0D9SG12|O00571 (UniProt O00571)”, the NP40-soluble protein abundance came to 1.03 ± 0.016. The figure for “A0A140T998|P28062 and related entries (UniProt X5D2R7+Q5JNW7+P28062)” is 1.02 ± 0.032. On to “A0A0D9SF44|A0A0R4J2E2|Q9Y3T6 (UniProt Q9Y3T6)”, for which the NP40-soluble protein abundance came to 0.989 ± 0.051.

On to “A0A0U1RQT7|A0A0U1RQY7|Q8IXA3 and related entries (UniProt Q9HCP0)”, for which the NP40-soluble protein abundance turned out to be 1.01 ± 0.027.

(Values after the supplement of paper PMC6411743.)
